By UniProt entry, the sequences of proteins in these tests, tags left out. Residues count along the entry.
UniProt P27695, 34-318, stated change not applied: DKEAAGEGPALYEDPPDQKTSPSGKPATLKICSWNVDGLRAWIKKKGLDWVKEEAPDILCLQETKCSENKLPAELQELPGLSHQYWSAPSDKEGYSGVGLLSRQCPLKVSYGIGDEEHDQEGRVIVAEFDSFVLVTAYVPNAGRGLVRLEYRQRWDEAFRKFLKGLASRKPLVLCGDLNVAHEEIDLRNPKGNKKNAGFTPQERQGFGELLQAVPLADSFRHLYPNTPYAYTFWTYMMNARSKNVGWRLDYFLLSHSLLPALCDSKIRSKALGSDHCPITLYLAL
UniProt P02769, 25-607: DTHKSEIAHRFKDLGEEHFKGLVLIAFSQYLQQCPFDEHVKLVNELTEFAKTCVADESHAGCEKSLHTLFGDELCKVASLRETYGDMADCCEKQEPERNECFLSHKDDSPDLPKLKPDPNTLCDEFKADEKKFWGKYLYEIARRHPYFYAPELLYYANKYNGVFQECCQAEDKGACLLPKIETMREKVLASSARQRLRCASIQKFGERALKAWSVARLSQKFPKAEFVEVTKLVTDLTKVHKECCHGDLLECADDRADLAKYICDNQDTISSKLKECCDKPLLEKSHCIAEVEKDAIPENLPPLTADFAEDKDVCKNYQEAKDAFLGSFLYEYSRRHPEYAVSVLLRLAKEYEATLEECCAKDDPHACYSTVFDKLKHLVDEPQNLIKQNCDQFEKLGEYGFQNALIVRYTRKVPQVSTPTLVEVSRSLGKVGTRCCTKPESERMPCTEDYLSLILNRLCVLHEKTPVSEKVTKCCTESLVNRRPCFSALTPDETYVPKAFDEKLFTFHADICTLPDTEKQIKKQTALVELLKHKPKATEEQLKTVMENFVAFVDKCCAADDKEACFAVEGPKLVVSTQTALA
UniProt Q15365, whole entry: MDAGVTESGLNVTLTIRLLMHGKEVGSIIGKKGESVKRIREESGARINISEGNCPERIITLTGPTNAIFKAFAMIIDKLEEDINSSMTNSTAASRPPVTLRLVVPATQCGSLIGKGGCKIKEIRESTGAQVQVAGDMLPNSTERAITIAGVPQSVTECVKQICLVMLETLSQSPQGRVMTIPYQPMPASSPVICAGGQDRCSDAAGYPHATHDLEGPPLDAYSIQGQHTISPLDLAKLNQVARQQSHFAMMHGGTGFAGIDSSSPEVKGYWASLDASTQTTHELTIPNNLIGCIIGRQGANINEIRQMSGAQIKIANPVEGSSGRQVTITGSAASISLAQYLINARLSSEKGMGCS

According to article PMC13343191:

Assays:
APE1 WT = APE1 WT (UniProt P27695); assay: UV-crosslinking; details: pH 5.5, 0.4 mM EDTA, UV-crosslinking: 50 mM Tris-acetate pH 5.5, 50 mM KCl, 1 mM DTT, 0.8% glycerol, 4°C, recombinant protein, label: 5' IRDye800 (SWB, UV-crosslinking), folded or branched DNA
APE1 NΔ33 del1-33 = APE1 NΔ33 del1-33 (UniProt P27695); assay: UV-crosslinking; details: weak bands, may reflect lysine loss; UV-crosslinking: 50 mM Tris-acetate pH 5.5, 50 mM KCl, 1 mM DTT, 0.8% glycerol, 0.4 mM EDTA, 4°C; recombinant protein; residues 34-318; label: 5' IRDye800 (SWB, UV-crosslinking); folded or branched DNA
BSA = BSA (UniProt P02769); assay: southwestern blot; details: switchSENSE: MES pH 5.5 (APE1) or 6.5 (iMab); SMADNE: 25 mM MES pH 5.5, 150 mM NaCl, 0.1 mg/ml BSA, 1 mM DTT, 1 mM Trolox; commercial protein; label: 5' IRDye800 (SWB, UV-crosslinking); folded or branched DNA
PCBP1 (hnRNP E1) = PCBP1 (hnRNP E1) (UniProt Q15365); assay: southwestern blot; details: abstract: higher iM affinity than APE1; switchSENSE: MES pH 5.5 (APE1) or 6.5 (iMab); SMADNE: 25 mM MES pH 5.5, 150 mM NaCl, 0.1 mg/ml BSA, 1 mM DTT, 1 mM Trolox; recombinant protein; residues 1-356; label: 5' IRDye800 (SWB, UV-crosslinking); folded or branched DNA

Sequence: TAACCCTAACCCTAACCCTAACCCTAA [C-NAT]
- binding result (APE1 WT): binds
- binding result (APE1 NΔ33 del1-33): binds more weakly
- binding result (BSA): no binding
- binding result (PCBP1 (hnRNP E1)): binds

For some of these results: A negative result means that nothing was seen under these conditions. For some of these results: For at least one entry, the source does not settle the construct or the ends of the probe. For some of these results: Weaker means in comparison with the reference protein, sequence or condition of that experiment. For some of these results: At least one verdict was read from the data and is not stated in words by the source.
